Measurements published in publication doi:10.1101/2024.04.26.591257 (bioRxiv, 2024).
Results are given in words; binding and its absence hold for the method and conditions named. In cells and extracts the contact can be indirect. For some of these results: Binding calls can cover weak binding; strength is not graded here. For some of these results: Where a sequence is shown, tags or fusion partners need not be part of it.

Amino acid sequences for entries named in this document (tags omitted). A change or cut given only in a name is not applied to a line headed by its entry.
UniProt Q9LN63: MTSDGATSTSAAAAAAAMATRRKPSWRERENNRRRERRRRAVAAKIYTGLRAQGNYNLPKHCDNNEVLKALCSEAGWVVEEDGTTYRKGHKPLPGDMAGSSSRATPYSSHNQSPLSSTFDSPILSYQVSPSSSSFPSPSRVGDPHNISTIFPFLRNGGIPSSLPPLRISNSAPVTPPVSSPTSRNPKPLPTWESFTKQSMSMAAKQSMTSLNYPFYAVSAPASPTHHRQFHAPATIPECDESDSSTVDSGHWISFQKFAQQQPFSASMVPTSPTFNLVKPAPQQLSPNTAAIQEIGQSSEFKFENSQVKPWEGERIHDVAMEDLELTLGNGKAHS
UniProt Q9ZNS0: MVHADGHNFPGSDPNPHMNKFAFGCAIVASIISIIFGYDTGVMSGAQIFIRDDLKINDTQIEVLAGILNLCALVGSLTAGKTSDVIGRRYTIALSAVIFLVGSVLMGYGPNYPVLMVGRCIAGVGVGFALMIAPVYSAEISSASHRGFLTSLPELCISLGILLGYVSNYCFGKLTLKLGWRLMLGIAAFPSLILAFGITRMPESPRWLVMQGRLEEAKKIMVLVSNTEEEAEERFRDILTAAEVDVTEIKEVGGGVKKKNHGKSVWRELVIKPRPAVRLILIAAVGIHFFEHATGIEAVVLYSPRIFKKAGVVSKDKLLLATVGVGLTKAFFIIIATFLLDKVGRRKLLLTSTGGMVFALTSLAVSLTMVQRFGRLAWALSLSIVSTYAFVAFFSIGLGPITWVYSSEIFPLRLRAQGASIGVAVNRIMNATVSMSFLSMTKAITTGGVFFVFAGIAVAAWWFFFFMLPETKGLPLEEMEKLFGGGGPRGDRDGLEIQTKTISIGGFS
UniProt Q52QU2: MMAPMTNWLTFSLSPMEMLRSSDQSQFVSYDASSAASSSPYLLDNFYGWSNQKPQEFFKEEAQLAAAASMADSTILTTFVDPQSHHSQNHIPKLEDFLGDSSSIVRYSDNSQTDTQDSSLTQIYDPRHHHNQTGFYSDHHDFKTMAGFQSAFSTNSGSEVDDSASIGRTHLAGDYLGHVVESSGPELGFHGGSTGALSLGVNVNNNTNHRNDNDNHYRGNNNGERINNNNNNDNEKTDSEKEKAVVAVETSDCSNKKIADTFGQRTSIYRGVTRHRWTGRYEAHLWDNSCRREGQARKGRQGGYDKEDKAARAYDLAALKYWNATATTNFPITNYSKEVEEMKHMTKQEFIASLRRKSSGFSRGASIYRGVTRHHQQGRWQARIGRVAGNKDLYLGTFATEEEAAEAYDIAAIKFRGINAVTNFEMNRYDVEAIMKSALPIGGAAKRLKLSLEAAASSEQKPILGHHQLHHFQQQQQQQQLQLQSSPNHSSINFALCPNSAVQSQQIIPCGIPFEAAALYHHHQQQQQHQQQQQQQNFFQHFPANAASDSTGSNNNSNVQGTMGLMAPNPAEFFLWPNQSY

What was measured:
[1] = biological target: BES1D-mV (BES1D fused to mVenus) (Arabidopsis thaliana) (UniProt Q9LN63); assay: FRET or BRET
[2] = biological target: T1, TPL-mV (TOPLESS fused to mVenus) (Arabidopsis thaliana, UniProt Q94AI7 1-1131); assay: FRET or BRET
T1 sequence (looked up): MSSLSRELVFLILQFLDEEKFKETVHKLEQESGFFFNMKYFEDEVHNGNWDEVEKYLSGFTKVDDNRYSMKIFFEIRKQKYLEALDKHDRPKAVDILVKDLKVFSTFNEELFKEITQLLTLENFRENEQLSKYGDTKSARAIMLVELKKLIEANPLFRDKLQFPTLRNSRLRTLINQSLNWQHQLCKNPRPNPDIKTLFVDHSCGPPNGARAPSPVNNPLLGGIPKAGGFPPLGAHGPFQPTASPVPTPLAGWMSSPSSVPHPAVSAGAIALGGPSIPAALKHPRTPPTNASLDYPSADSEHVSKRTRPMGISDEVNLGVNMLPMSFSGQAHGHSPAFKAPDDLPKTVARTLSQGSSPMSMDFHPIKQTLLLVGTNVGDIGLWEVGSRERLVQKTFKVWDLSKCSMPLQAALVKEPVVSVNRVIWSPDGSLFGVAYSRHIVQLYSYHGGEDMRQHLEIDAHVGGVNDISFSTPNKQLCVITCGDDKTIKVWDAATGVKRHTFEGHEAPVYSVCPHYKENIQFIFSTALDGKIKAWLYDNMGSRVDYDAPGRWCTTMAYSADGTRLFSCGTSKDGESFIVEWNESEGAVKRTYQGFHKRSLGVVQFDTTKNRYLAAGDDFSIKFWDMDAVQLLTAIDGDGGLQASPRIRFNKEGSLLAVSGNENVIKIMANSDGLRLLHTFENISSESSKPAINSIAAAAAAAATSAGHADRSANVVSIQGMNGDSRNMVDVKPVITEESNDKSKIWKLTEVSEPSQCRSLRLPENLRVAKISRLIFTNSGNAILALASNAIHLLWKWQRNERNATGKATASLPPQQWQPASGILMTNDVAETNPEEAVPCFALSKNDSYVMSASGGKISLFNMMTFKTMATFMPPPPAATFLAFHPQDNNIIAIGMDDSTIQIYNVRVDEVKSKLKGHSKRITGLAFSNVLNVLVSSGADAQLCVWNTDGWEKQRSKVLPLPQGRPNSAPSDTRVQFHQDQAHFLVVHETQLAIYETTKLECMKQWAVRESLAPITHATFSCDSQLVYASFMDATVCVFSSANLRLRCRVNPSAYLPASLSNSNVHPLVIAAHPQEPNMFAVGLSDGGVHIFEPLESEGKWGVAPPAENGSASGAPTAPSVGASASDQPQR

[3] = biological target: T2, BRAVO-mV(N) (BRAVO fused to the N-terminal part of mVenus) (Arabidopsis thaliana) (UniProt Q6R053); assay: split reporter
T2 sequence: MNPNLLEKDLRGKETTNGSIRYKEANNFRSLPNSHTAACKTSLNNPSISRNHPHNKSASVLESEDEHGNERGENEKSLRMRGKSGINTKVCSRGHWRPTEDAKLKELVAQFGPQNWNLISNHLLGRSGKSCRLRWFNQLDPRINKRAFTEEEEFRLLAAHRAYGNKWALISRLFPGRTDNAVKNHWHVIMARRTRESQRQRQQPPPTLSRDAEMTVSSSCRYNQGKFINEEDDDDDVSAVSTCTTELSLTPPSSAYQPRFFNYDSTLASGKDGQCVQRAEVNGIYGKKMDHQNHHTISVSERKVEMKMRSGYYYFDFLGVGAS

[4] = biological target: T3, WOX5-mV(N) (WOX5 fused to the N-terminal part of mVenus) (Arabidopsis thaliana) (UniProt Q8H1D2); assay: split reporter
T3 sequence: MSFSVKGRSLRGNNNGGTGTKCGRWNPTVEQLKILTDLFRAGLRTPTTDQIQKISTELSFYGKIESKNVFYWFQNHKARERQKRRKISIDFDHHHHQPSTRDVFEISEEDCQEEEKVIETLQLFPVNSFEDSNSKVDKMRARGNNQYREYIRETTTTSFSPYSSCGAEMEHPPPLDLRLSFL

binding [1] | binding [2] | binding [3] | binding [4] | Substance
no binding | no binding | – | – | PLT3ΔPrD-mCh (PLT3 with its prion-like domains deleted, fused to mCherry) (from UniProt Q9ZNS0)
– | – | binds | binds | PLT3-mV(C) (PLT3 fused to the C-terminal part of mVenus) (from UniProt Q52QU2)
